{"source": "PubChem BioAssay AID2685", "about": "(National Center for Advancing Translational Sciences (NCATS), 2010)", "note": "Screen size: about 320,000 compounds; about 2,100 (0.66%) were called active. The shares of active, inactive and inconclusive entries below differ from those in the screen. Calls come from the whole dose curve; as a rule, active = well fitted inhibition curve with a large enough effect in the signal ratio, with a control signal flat (not every such curve was filed as active); inconclusive = small, poorly fitted or top-dose-only effect, or effect the other way, or a change in a side signal; inactive = flat fitted curve, though single readings scatter; the % refers to the signal ratio. Potencies beside an inconclusive call are fits to weak or partial responses and may not hold up. % is set by controls: 0 for no effect and ±100 for the full control effect; potency is the fitted concentration of half-maximal effect.", "data": [{"test": "qHTS Assay for Lipid Storage Modulators in Drosophila S3 Cells", "conditions": "BODIPY lipid droplet fluorescence, 18-24 h, cells fed with added oleic acid; lipid storage change, negative = inhibition: at 46.1 µM (top of the series) unless noted", "summary_of_the_method": "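Laser-scanning cytometry quantifies lipid droplet accumulation (500–530 nm total intensity; droplet/cell object ratio) in oleic acid-fed (400 uM added) Drosophila S3 cells treated with a concentration series. 20 uM Triacsin C defined 100% inhibition.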", "values": [{"smiles": "CCOC(=O)c1ccc(S(=O)(=O)N2CCN(CC(=O)NC(=O)NC(C)(C)C)CC2)cc1", "lipid storage change, negative = inhibition": "inconclusive: 77%"}, {"smiles": "COc1cc(C(=O)Nc2ccccc2N2CCN(S(C)(=O)=O)CC2)cc(OC)c1OC", "Potency": "inconclusive: 14.6 µM [activator, partial curve]"}, {"smiles": "C=CCn1c(CNC(=O)c2ccccc2F)nnc1SCC(=O)NC(C)c1ccccc1", "note": "(stereo not given)", "lipid storage change, negative = inhibition": "inactive: 9.08%"}, {"smiles": "CCOC(=O)N1CCN(C(=O)c2ccc3c(c2)N(C)C(=O)/C(=C\\c2ccc(OCC)c(OC)c2)S3)CC1", "Potency": "inconclusive: 6.51 µM [falling, single point]"}, {"smiles": "COc1ccc(CCN(C)c2ccc(S(=O)(=O)N3CCCC3)cc2[N+](=O)[O-])cc1OC", "lipid storage change, negative = inhibition": "inconclusive: 19.8%"}, {"smiles": "COc1ccc(C2=NS(=O)(=O)N(C)C(C(=O)NC3CCCCC3)=C2)cc1OC", "lipid storage change, negative = inhibition": "inconclusive: -37.2%"}, {"smiles": "CN(C)C(=S)Nc1ccc2c(c1)OCO2", "lipid storage change, negative = inhibition": "inconclusive: 2.46%"}, {"smiles": "Cc1cc(Cl)ccc1OCC(=O)NNC(=O)C1CSC2(C)CCC(=O)N12", "note": "(stereo not given)", "lipid storage change, negative = inhibition": "inconclusive"}, {"smiles": "Cc1cc(C)n(-c2ccc(C(=O)Nc3ccc(S(=O)(=O)N(C)C)cc3)cc2)n1", "Potency": "inconclusive: 0.291 µM [activator, partial curve, poor fit]"}, {"smiles": "COc1cc2c(C(=O)NCc3ccc4c(c3)OCO4)cn(C)c(=O)c2cc1OC", "Potency": "inconclusive: 16.4 µM [activator, single point]"}, {"smiles": "CCOC(=O)c1cc(-c2ccccc2C)n(CC2CC(c3cccc([N+](=O)[O-])c3)=NO2)n1", "note": "(stereo not given)", "lipid storage change, negative = inhibition": "inconclusive: -58.4%"}, {"smiles": "COc1ccc(C)cc1NC(=O)c1ccc2c(c1)OCO2", "Potency": "inconclusive: 6.51 µM [activator, partial curve, poor fit]"}, {"smiles": "O=C(COC(=O)Cc1ccc(S(=O)(=O)N2CCOCC2)s1)NCCc1ccccc1", "lipid storage change, negative = inhibition": "inconclusive: -1.03%"}, {"smiles": "Cc1nnc(SCC(=O)NC2CCCC2)n1CCc1ccccc1", "lipid storage change, negative = inhibition": "inconclusive: -69%"}, {"smiles": "COc1cccc(-c2ncc3ccccc3c2COC(=O)c2ccc(Br)cc2)c1", "outcome": "inactive [at 46.1 µM]"}, {"smiles": "Cc1cccc(-n2c(C)cc(/C=N/n3cnnc3)c2C)c1", "Potency": "inconclusive: 29.1 µM [falling, single point]"}, {"smiles": "Cc1cccc(N2CCN(C(=O)NCc3ccc(F)cc3)CC2)c1C", "Potency": "inconclusive: 29.1 µM [activator, single point]"}, {"smiles": "CN(CCc1nc2ccc(Cl)cc2[nH]1)Cc1nc(CC2CC2)no1", "lipid storage change, negative = inhibition": "inconclusive: 21.1%"}, {"smiles": "CC(C)c1ccccc1OCC(=O)NN1C(=O)c2ccccc2C1=O", "lipid storage change, negative = inhibition": "inconclusive: 50.5%"}, {"smiles": "CCOc1ccccc1CNC(=O)CCN1C(=O)COc2ccccc21", "lipid storage change, negative = inhibition": "inconclusive: -4.1%"}, {"smiles": "COc1ccc(C(CNC(=O)CNC(=O)c2cc(OC)c(OC)c(OC)c2)N2CCOCC2)cc1", "note": "(stereo not given)", "lipid storage change, negative = inhibition": "inconclusive: -34.3%"}, {"smiles": "CCc1ccc(CN2CCC(n3nccc3NC(=O)c3cccc(F)c3)CC2)cc1", "lipid storage change, negative = inhibition": "inconclusive: -11.1%"}, {"smiles": "O=C(NC1CCCC1)c1ccc(CS(=O)(=O)Cc2ccccc2F)o1", "lipid storage change, negative = inhibition": "inconclusive: 38.4%"}, {"smiles": "O=[N+]([O-])c1cccc(S(=O)(=O)Nc2ccc(-c3ccc(N4CCOCC4)nn3)cc2)c1", "lipid storage change, negative = inhibition": "inconclusive"}, {"smiles": "Cc1cc(C(=O)NCC2COc3ccccc3O2)c2ccccc2n1", "note": "(stereo not given)", "lipid storage change, negative = inhibition": "inconclusive: -15.6%"}, {"smiles": "CC(C)N(CC#CCC(O)(c1ccccc1)c1ccccc1)CCO", "Potency": "inconclusive: 0.103 µM [falling, full curve, poor fit]"}, {"smiles": "COc1cc(/C=C/C(=O)NNC(=O)c2cccc(S(=O)(=O)N(C)C)c2)cc(OC)c1OC", "lipid storage change, negative = inhibition": "inconclusive"}, {"smiles": "CCOC(=O)c1cc(CC)sc1NC(=O)c1cc([N+](=O)[O-])ccc1N1CCOCC1", "lipid storage change, negative = inhibition": "inconclusive: 19%"}, {"smiles": "S=c1[nH]nc(Cn2nnc3ccccc32)n1-c1ccccc1", "lipid storage change, negative = inhibition": "inconclusive: -19.1%"}, {"smiles": "Cc1sc2ncnc(N3CCN(CCOc4ccc(Cl)cc4)CC3)c2c1C", "Potency": "inconclusive: 5.17 µM [activator, partial curve]"}, {"smiles": "CCN(CC)CCn1c(=S)[nH]c2cc(C(=O)NCc3ccccc3Cl)ccc2c1=O", "Potency": "inconclusive: 0.92 µM [falling, full curve]"}, {"smiles": "CC1(C)CCC[C@]2(C)[C@H]3CC(=O)O[C@]3(C)CC[C@@H]12", "lipid storage change, negative = inhibition": "inconclusive: 55.6%"}, {"smiles": "CC(=O)c1sc(Nc2nc3cc4c(cc3s2)OCO4)nc1C", "lipid storage change, negative = inhibition": "inconclusive: 17.4% [at 9.22 µM]"}, {"smiles": "CCOC(=O)c1ccc(OS(=O)(=O)c2ccccc2)c(OC)c1", "Potency": "inconclusive: 6.51 µM [activator, partial curve, poor fit]"}, {"smiles": "CCn1c(Cc2ccc(OC)cc2)nnc1SCC(=O)NC1CCCCC1", "Potency": "inconclusive: 6.51 µM [falling, single point]"}, {"smiles": "COc1ccc(CCNC(=O)C(=O)NCC2OCCN2C(=O)c2ccc(Cl)cc2)cc1OC", "note": "(stereo not given)", "Potency": "inconclusive: 29.1 µM [activator, single point]"}, {"smiles": "Nc1cc(Cl)ccc1N1CCOCC1", "lipid storage change, negative = inhibition": "inconclusive: 23.3%"}, {"smiles": "CCOC(=O)CSc1nc2sc3c(c2c(=O)[nH]1)CC(C)(C)OC3", "Potency": "inconclusive: 11.6 µM [falling, partial curve, poor fit]"}, {"smiles": "CC(Oc1ccccc1)C(=O)NC1CCSc2ccccc21", "note": "(stereo not given)", "lipid storage change, negative = inhibition": "inconclusive: -51.9%"}, {"smiles": "CN(CC(=O)Nc1cccc(F)c1)C(=O)CSc1ccccc1F", "lipid storage change, negative = inhibition": "inconclusive: 11.3%"}, {"smiles": "O=C(O)c1nn(CCOc2cccc(Cl)c2)c(=O)c2ccccc12", "lipid storage change, negative = inhibition": "inconclusive: 39.4%"}, {"smiles": "COc1ccc(-c2nc(Cn3c(SCc4ccc(C)cc4)nc4ccncc43)c(C)o2)cc1OC", "lipid storage change, negative = inhibition": "inconclusive: -22.2%"}, {"smiles": "O=C(Nc1nc2ccccc2s1)C1CCCN1S(=O)(=O)c1ccc(Cl)cc1", "note": "(stereo not given)", "lipid storage change, negative = inhibition": "inconclusive: 23.1%"}, {"smiles": "COc1ccc(/C(C)=N/NC(=O)c2ccc(NS(=O)(=O)c3cccs3)cc2)cc1", "lipid storage change, negative = inhibition": "inconclusive: -37.3%"}, {"smiles": "Cn1cnc(S(=O)(=O)Nc2ccc3c(c2)OCCO3)c1", "Potency": "inconclusive: 29.1 µM [rising, single point]"}, {"smiles": "O=C(NCCc1ccccc1)C(=O)NCC1(c2ccccc2)CCCC1", "lipid storage change, negative = inhibition": "inconclusive: 0.394%"}, {"smiles": "O=C(CN1C(=O)NC2(CCCCC2)C1=O)Nc1ccccc1N1CCCC1", "Potency": "inconclusive: 0.0058 µM [falling, full curve, poor fit]"}, {"smiles": "CCNC(=S)Nc1ccc(C)c(S(=O)(=O)Nc2ccccc2OC)c1", "lipid storage change, negative = inhibition": "inconclusive: 10.1%"}, {"smiles": "O=C(OCCCN=C1NS(=O)(=O)c2ccccc21)c1ccccc1F", "lipid storage change, negative = inhibition": "inconclusive: 36.5%"}, {"smiles": "O=C(O)c1ccc2c(c1)C(=O)N(c1cccc(S(=O)(=O)Nc3cccc(C(F)(F)F)c3)c1)C2=O", "lipid storage change, negative = inhibition": "inconclusive: 14.1%"}, {"smiles": "C/C(=C\\c1ccccc1)C(=O)Nc1nccs1", "lipid storage change, negative = inhibition": "inconclusive: 15.7%"}, {"smiles": "c1ccc(COC2CCCN(Cc3nc(Cc4ccccc4)no3)C2)cc1", "note": "(stereo not given)", "lipid storage change, negative = inhibition": "inconclusive: 24.2%"}, {"smiles": "CCOC(=O)C1=C(COC(=O)/C=C/c2ccc(O)c(OC)c2)NC(=O)NC1C", "note": "(stereo not given)", "Potency": "inconclusive: 0.82 µM [falling, full curve, poor fit]"}, {"smiles": "CCN(CC)C(=O)N(CC)Cc1ccccc1", "lipid storage change, negative = inhibition": "inconclusive: -37%"}, {"smiles": "Cc1cccc(N(C(=O)CS(=O)CC(=O)Nc2ccc3c(c2)OCO3)C(C)C(=O)NC2CCCC2)c1C", "note": "(stereo not given)", "Potency": "inconclusive: 20.6 µM [falling, partial curve, poor fit]"}, {"smiles": "CCCOC(=O)c1ccc(OCC(O)Cn2c(C)nc3ccccc32)cc1", "note": "(stereo not given)", "lipid storage change, negative = inhibition": "inconclusive: -93% [cytotoxic]"}, {"smiles": "Cc1ccc(S(=O)(=O)N2CCN(S(=O)(=O)c3ccccc3)C2c2ccc(N(C)C)cc2)cc1", "note": "(stereo not given)", "lipid storage change, negative = inhibition": "inconclusive: 141%"}, {"smiles": "CC(C)CCNC(=O)CN(Cc1ccc2c(c1)OCO2)C(=O)CCC(=O)Nc1ccccn1", "lipid storage change, negative = inhibition": "inactive: 11.2%"}, {"smiles": "CC(C)c1ccc(C2C(C(=O)c3ccco3)=C(O)C(=O)N2CC2CCCO2)cc1", "note": "(stereo not given)", "lipid storage change, negative = inhibition": "inconclusive: -45.5%"}, {"smiles": "COc1cccc(/C=C2/Sc3ccc(C(=O)NCCN4CCCCCC4)cc3NC2=O)c1", "lipid storage change, negative = inhibition": "inconclusive: -8.28%"}, {"smiles": "Cc1ccc(Cn2nnc3c(=O)n(CC(=O)NCc4ccco4)cnc32)cc1", "lipid storage change, negative = inhibition": "inconclusive: -11.4%"}, {"smiles": "CCOC(=O)CS(=O)(=O)c1ccc2ccccc2c1", "lipid storage change, negative = inhibition": "inconclusive: -9.28%"}, {"smiles": "Cc1cc(C)cc(-n2ccn(CC(=O)NCCc3ccccc3)c(=O)c2=O)c1", "outcome": "inactive [at 46.1 µM]"}, {"smiles": "O=C1CC(N2CCOCC2)C(=O)N1Cc1ccc(N2CCCC2=O)cc1", "note": "(stereo not given)", "lipid storage change, negative = inhibition": "inconclusive: -35.7%"}, {"smiles": "O=C(NC1CCCC1)c1cc2c(=O)n3ccccc3nc2s1", "lipid storage change, negative = inhibition": "inconclusive: 4.03%"}, {"smiles": "O=C(COC(=O)CCC(=O)c1ccc(F)cc1)Nc1cccc(S(=O)(=O)N2CCCC2)c1", "Potency": "inconclusive: 2.06 µM [falling, single point]"}, {"smiles": "COCc1nn2c(N)c(-c3ccccc3)cnc2c1-c1ccccc1", "lipid storage change, negative = inhibition": "inconclusive: 28.1%"}, {"smiles": "Cc1ccc(C(=O)Oc2oc(-c3ccccc3)nc2C=Nc2ccc(N(C)C)cc2)cc1", "lipid storage change, negative = inhibition": "inconclusive: -5.58%"}, {"smiles": "CCC(C)NC(=O)COC(=O)c1ccc(Cl)cc1O", "note": "(stereo not given)", "Potency": "inconclusive: 29.1 µM [cytotoxic, single point]"}, {"smiles": "COc1cc2c(cc1NC(C)=O)CCCC2", "Potency": "inconclusive: 29.1 µM [activator, single point]"}, {"smiles": "CCN(CC)CCNc1nc(-c2ccc(OC)cc2)c(-c2ccc(OC)cc2)s1", "lipid storage change, negative = inhibition": "inconclusive: -13.4%"}, {"smiles": "CC(C)(C)c1cc(NCCCn2ccnc2)n2ncc(-c3ccccc3)c2n1", "Potency": "inconclusive: 29.1 µM [falling, single point]"}, {"smiles": "O=C1CN(C(=O)COC(=O)/C=C/c2ccco2)c2ccccc2N1", "lipid storage change, negative = inhibition": "inconclusive: -15.7%"}, {"smiles": "COc1cccc(-c2nn(-c3ccccc3)cc2/C=C\\C(=O)c2cccs2)c1", "Potency": "inconclusive: 20.6 µM [falling, single point]"}, {"smiles": "O=C(c1csc2ccccc12)N1CCN(c2ccc(Cl)c(Cl)c2)CC1", "lipid storage change, negative = inhibition": "inconclusive: -0.49%"}]}]}
